Experimental data from US20110244473A1.
These are yes or no findings as the source states them, for the method shown. Binding seen in cells or lysates may run through a third protein. Some entries that bind do so weakly or less than the wild type.

Biological target: T1, Fas (human), P25445
T1 chain: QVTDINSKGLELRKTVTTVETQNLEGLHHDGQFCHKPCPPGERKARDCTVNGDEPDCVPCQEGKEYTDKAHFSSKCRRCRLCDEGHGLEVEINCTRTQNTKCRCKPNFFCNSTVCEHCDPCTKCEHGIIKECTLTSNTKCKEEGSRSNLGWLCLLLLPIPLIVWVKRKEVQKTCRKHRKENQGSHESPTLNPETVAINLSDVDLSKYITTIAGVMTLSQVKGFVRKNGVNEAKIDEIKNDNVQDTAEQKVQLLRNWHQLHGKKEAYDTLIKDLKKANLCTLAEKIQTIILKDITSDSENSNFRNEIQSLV
Assay: DISC co-immunoprecipitation through the Flag-tagged ligand, immunoblot; BJAB cells on ice
Conditions: remark: other sources report otherwise

B1: FADD, Q13158 1-208 (protein, human, UniProt Q13158 1-208, looked up)
chain: MDPFLVLLHSVSSSLSSSELTELKFLCLGRVGKRKLERVQSGLDLFSMLLEQNDLEPGHTELLRELLASLRRHDLLRRVDDFEAGAAAGAAPGEEDLCAAFNVICDNVGKDWRRLARQLKVSDTKIDSIEDRYPRNLTERVRESLRIWKNTEKENATVAHLVGALRSCQMNLVADLVQEVQQARDLQNRSGAMSPMSWNSDASTSEAS
- binding: binds
